Laboratory results published in patent US20170327598A1, “SINGLE DOMAIN ANTIBODIES DIRECTED AGAINST INTRACELLULAR ANTIGENS” (SINGH MOLECULAR MEDICINE, LLC, priority 2014, published 2017).
Values joined by “and” are separate entries in the source; they are usually repeats but may differ in a detail not shown here. Equal values may be shown once. Read-outs that look alike come from different tables or passages of the source. This continues a long series; more values of the same kind are listed elsewhere.

Test system: MDA-MB-231 human breast cancer xenograft
Settings: listed as anti-STAT3 bacterial VHH13

## Anti-STAT3 VHH13: anti-STAT3 single domain antibody, SEQ ID NO:3; bacterially produced form referred to as SBT-100
Group 2, 500 μg/kg bw IP QDx14, single animals, Day 1
  Individual Tumor Measurements: 163.73 mm^3 and 75.54 mm^3 and 70.04 mm^3 and 101.62 mm^3 and 67.83 mm^3 and 131.93 mm^3 and 74.28 mm^3
Group 2, single animals, Day 6
  Individual Tumor Measurements: 178.23 mm^3 and 83.94 mm^3 and 89.24 mm^3 and 65.09 mm^3 and 62.21 mm^3 and 75.28 mm^3 and 109.06 mm^3
Group 2, single animals, Day 9
  Individual Tumor Measurements: 183.79 mm^3 and 103.68 mm^3 and 102.60 mm^3 and 82.02 mm^3 and 59.00 mm^3 and 76.21 mm^3 and 111.92 mm^3
Group 2, single animals, Day 12
  Individual Tumor Measurements: 165.52 mm^3 and 119.88 mm^3 and 75.25 mm^3 and 68.01 mm^3 and 77.04 mm^3 and 53.55 mm^3 and 89.94 mm^3
Group 2, single animals, Day 16
  Individual Tumor Measurements: 166.77 mm^3 and 214.28 mm^3 and 104.26 mm^3 and 57.65 mm^3 and 61.41 mm^3 and 65.49 mm^3 and 73.66 mm^3 and 58.56 mm^3
Group 2, single animals, Day 20
  Individual Tumor Measurements: 285.88 mm^3 and 129.51 mm^3 and 99.48 mm^3 and 95.23 mm^3 and 61.83 mm^3 and 82.73 mm^3 and 51.61 mm^3 and 100.07 mm^3
